Measured values from patent US12516015B2 (AMALIVE LIMITED, priority 2009, dated 2026).
Where two headings read alike, the source gives them in different places.

NCCC[C@H](N)C(=O)O.O=C(O)Cc1ccccc1 [L-ornithine phenyl acetate]
Results (crystalline form of precipitate) (Test 292, Anti-Solvent (IPA) Addition Ambient Temperature, solvent EtOH: 3% H20): No Solid | Results (crystalline form of precipitate) (Test 293, Anti-Solvent (IPA) Addition (4° C.), solvent EtOH: 3% H20): No Solid | Results (crystalline form of precipitate) (Test 294, Anti-Solvent (IPA) Addition (−21° C.), solvent EtOH: 3% H20): No Solid | Results (crystalline form of precipitate) (Test 295, Anti-Solvent (Ethanol) Addition Ambient Temperature, solvent EtOH: 3% H20): No Solid | Results (crystalline form of precipitate) (Test 296, Anti-Solvent (Ethanol) Addition (4° C.), solvent EtOH: 3% H20): No Solid | Results (crystalline form of precipitate) (Test 297, Anti-Solvent (Ethanol) Addition (−21° C.), solvent EtOH: 3% H20): No Solid | Results (crystalline form of precipitate) (Test 302, Anti-Solvent (IPA) Addition Elevated Temperature, solvent EtOH: 5% H20): No Solid | Results (crystalline form of precipitate) (Test 303, Anti-Solvent (IPA) Addition Ambient Temperature, solvent EtOH: 5% H20): Form II | Results (crystalline form of precipitate) (Test 304, Anti-Solvent (IPA) Addition (4° C.), solvent EtOH: 5% H20): No Solid | Results (crystalline form of precipitate) (Test 305, Anti-Solvent (IPA) Addition (−21° C.), solvent EtOH: 5% H20): No Solid | Results (crystalline form of precipitate) (Test 306, Anti-Solvent (Ethanol) Addition Ambient Temperature, solvent EtOH: 5% H20): No Solid | Results (crystalline form of precipitate) (Test 307, Anti-Solvent (Ethanol) Addition (4° C.), solvent EtOH: 5% H20): No Solid | Results (crystalline form of precipitate) (Test 308, Anti-Solvent (Ethanol) Addition (−21° C.), solvent EtOH: 5% H20): No Solid | Results (crystalline form of precipitate) (Test 313, Anti-Solvent (IPA) Addition Elevated Temperature, solvent IPA: 1% H20): No Solid | Results (crystalline form of precipitate) (Test 314, Anti-Solvent (IPA) Addition Ambient Temperature, solvent IPA: 1% H20): No Solid | Results (crystalline form of precipitate) (Test 315, Anti-Solvent (IPA) Addition (4° C.), solvent IPA: 1% H20): No Solid | Results (crystalline form of precipitate) (Test 316, Anti-Solvent (IPA) Addition (−21° C.), solvent IPA: 1% H20): No Solid | Results (crystalline form of precipitate) (Test 317, Anti-Solvent (Ethanol) Addition Ambient Temperature, solvent IPA: 1%H20): No Solid | Results (crystalline form of precipitate) (Test 318, Anti-Solvent (Ethanol) Addition (4° C.), solvent IPA: 1% H20): No Solid | Results (crystalline form of precipitate) (Test 319, Anti-Solvent (Ethanol) Addition (−21° C.), solvent IPA: 1% H20): No Solid | Results (crystalline form of precipitate) (Test 324, Anti-Solvent (IPA) Addition Elevated Temperature, solvent IPA: 3% H20): No Solid | Results (crystalline form of precipitate) (Test 325, Anti-Solvent (IPA) Addition Ambient Temperature, solvent IPA: 3% H20): No Solid | Results (crystalline form of precipitate) (Test 326, Anti-Solvent (IPA) Addition (4° C.), solvent IPA: 3% H20): No Solid | Results (crystalline form of precipitate) (Test 327, Anti-Solvent (IPA) Addition (−21° C.), solvent IPA: 3% H20): No Solid | Results (crystalline form of precipitate) (Test 328, Anti-Solvent (Ethanol) Addition Ambient Temperature, solvent IPA: 3% H20): No Solid | Results (crystalline form of precipitate) (Test 329, Anti-Solvent (Ethanol) Addition (4° C.), solvent IPA: 3% H20): No Solid | Results (crystalline form of precipitate) (Test 330, Anti-Solvent (Ethanol) Addition (−21° C.), solvent IPA: 3% H20): No Solid | Results (crystalline form of precipitate) (Test 335, Anti-Solvent (IPA) Addition Elevated Temperature, solvent IPA: 5% H20): No Solid | Results (crystalline form of precipitate) (Test 336, Anti-Solvent (IPA) Addition Ambient Temperature, solvent IPA: 5% H20): No Solid | Results (crystalline form of precipitate) (Test 337, Anti-Solvent (IPA) Addition (4° C.), solvent IPA: 5% H20): No Solid | Results (crystalline form of precipitate) (Test 338, Anti-Solvent (IPA) Addition (−21° C.), solvent IPA: 5% H20): No Solid | Results (crystalline form of precipitate) (Test 339, Anti-Solvent (Ethanol) Addition Ambient Temperature, solvent IPA: 5% H20): No Solid | Results (crystalline form of precipitate) (Test 340, Anti-Solvent (Ethanol) Addition (4° C.), solvent IPA: 5% H20): No Solid | Results (crystalline form of precipitate) (Test 341, Anti-Solvent (Ethanol) Addition (−21° C.), solvent IPA: 5% H20): No Solid | Results (crystalline form of precipitate) (Test 346, Anti-Solvent (IPA) Addition Elevated Temperature, solvent ACN: 1% H20): No Solid | Results (crystalline form of precipitate) (Test 347, Anti-Solvent (IPA) Addition Ambient Temperature, solvent ACN: 1% H20): No Solid | Results (crystalline form of precipitate) (Test 348, Anti-Solvent (IPA) Addition (4° C.), solvent ACN: 1% H20): No Solid | Results (crystalline form of precipitate) (Test 349, Anti-Solvent (IPA) Addition (−21° C.), solvent ACN: 1% H20): No Solid | Results (crystalline form of precipitate) (Test 350, Anti-Solvent (Ethanol) Addition Ambient Temperature, solvent ACN: 1% H20): No Solid | Results (crystalline form of precipitate) (Test 351, Anti-Solvent (Ethanol) Addition (4° C.), solvent ACN: 1% H20): No Solid | Results (crystalline form of precipitate) (Test 352, Anti-Solvent (Ethanol) Addition (−21° C.), solvent ACN: 1% H20): No Solid | Results (crystalline form of precipitate) (Test 357, Anti-Solvent (IPA) Addition Elevated Temperature, solvent ACN: 6% H20): No Solid | Results (crystalline form of precipitate) (Test 358, Anti-Solvent (IPA) Addition Ambient Temperature, solvent ACN: 6% H20): No Solid | Results (crystalline form of precipitate) (Test 359, Anti-Solvent (IPA) Addition (4° C.), solvent ACN: 6% H20): No Solid | Results (crystalline form of precipitate) (Test 360, Anti-Solvent (IPA) Addition (−21° C.), solvent ACN: 6% H20): No Solid | Results (crystalline form of precipitate) (Test 361, Anti-Solvent (Ethanol) Addition Ambient Temperature, solvent ACN: 6% H20): No Solid | Results (crystalline form of precipitate) (Test 362, Anti-Solvent (Ethanol) Addition (4° C.), solvent ACN: 6% H20): No Solid | Results (crystalline form of precipitate) (Test 363, Anti-Solvent (Ethanol) Addition (−21° C.), solvent ACN: 6% H20): No Solid | Results (crystalline form of precipitate) (Test 368, Anti-Solvent (IPA) Addition Elevated Temperature, solvent ACN: 12% H20): No Solid | Results (crystalline form of precipitate) (Test 369, Anti-Solvent (IPA) Addition Ambient Temperature, solvent ACN: 12% H20): Form II | Results (crystalline form of precipitate) (Test 370, Anti-Solvent (IPA) Addition (4° C.), solvent ACN: 12% H20): No Solid | Results (crystalline form of precipitate) (Test 371, Anti-Solvent (IPA) Addition (−21° C.), solvent ACN: 12% H20): Form II | Results (crystalline form of precipitate) (Test 372, Anti-Solvent (Ethanol) Addition Ambient Temperature, solvent ACN: 12% H20): No Solid | Results (crystalline form of precipitate) (Test 373, Anti-Solvent (Ethanol) Addition (4° C.), solvent ACN: 12% H20): No Solid | Results (crystalline form of precipitate) (Test 374, Anti-Solvent (Ethanol) Addition (−21° C.), solvent ACN: 12% H20): No Solid | Results (crystalline form of precipitate) (Test 379, Anti-Solvent (IPA) Addition Elevated Temperature, solvent DMF: 5% H20): No Solid | Results (crystalline form of precipitate) (Test 380, Anti-Solvent (IPA) Addition Ambient Temperature, solvent DMF: 5% H20): No Solid | Results (crystalline form of precipitate) (Test 381, Anti-Solvent (IPA) Addition (4° C.), solvent DMF: 5% H20): No Solid | Results (crystalline form of precipitate) (Test 382, Anti-Solvent (IPA) Addition (−21° C.), solvent DMF: 5% H20): No Solid | Results (crystalline form of precipitate) (Test 383, Anti-Solvent (Ethanol) Addition Ambient Temperature, solvent DMF: 5% H20): No Solid | Results (crystalline form of precipitate) (Test 384, Anti-Solvent (Ethanol) Addition (4° C.), solvent DMF: 5% H20): No Solid | Results (crystalline form of precipitate) (Test 385, Anti-Solvent (Ethanol) Addition (−21° C.), solvent DMF: 5% H20): No Solid | Results (crystalline form of precipitate) (Test 390, Anti-Solvent (IPA) Addition Elevated Temperature, solvent DMF: 15% H20): No Solid | Results (crystalline form of precipitate) (Test 391, Anti-Solvent (IPA) Addition Ambient Temperature, solvent DMF: 15% H20): No Solid | Results (crystalline form of precipitate) (Test 392, Anti-Solvent (IPA) Addition (4° C.), solvent DMF: 15% H20): No Solid | Results (crystalline form of precipitate) (Test 393, Anti-Solvent (IPA) Addition (−21° C.), solvent DMF: 15% H20): No Solid | Results (crystalline form of precipitate) (Test 394, Anti-Solvent (Ethanol) Addition Ambient Temperature, solvent DMF: 15% H20): No Solid | Results (crystalline form of precipitate) (Test 395, Anti-Solvent (Ethanol) Addition (4° C.), solvent DMF: 15% H20): No Solid | Results (crystalline form of precipitate) (Test 396, Anti-Solvent (Ethanol) Addition (−21° C.), solvent DMF: 15% H20): No Solid | Results (crystalline form of precipitate) (Test 401, Anti-Solvent (IPA) Addition Elevated Temperature, solvent DMF: 30% H20): Form II | Results (crystalline form of precipitate) (Test 402, Anti-Solvent (IPA) Addition Ambient Temperature, solvent DMF: 30% H20): Form II | Results (crystalline form of precipitate) (Test 403, Anti-Solvent (IPA) Addition (4° C.), DMF: 30% H20): Form II | Results (crystalline form of precipitate) (Test 404, Anti-Solvent (IPA) Addition (−21° C.), DMF: 30% H20): Form II | Results (crystalline form of precipitate) (Test 405, Anti-Solvent (Ethanol) Addition Ambient Temperature, DMF: 30% H20): Form II | Results (crystalline form of precipitate) (Test 406, Anti-Solvent (Ethanol) Addition (4° C.), DMF: 30% H20): No Solid | Results (crystalline form of precipitate) (Test 407, Anti-Solvent (Ethanol) Addition (−21° C.), DMF: 30% H20): Form II | Results (crystalline form of precipitate) (Test 412, Anti-Solvent (IPA) Addition Elevated Temperature, 1,4-dioxane: 1% H20): No Solid | Results (crystalline form of precipitate) (Test 413, Anti-Solvent (IPA) Addition Ambient Temperature, 1,4-dioxane: 1% H20): No Solid | Results (crystalline form of precipitate) (Test 414, Anti-Solvent (IPA) Addition (4° C.), 1,4-dioxane: 1% H20): No Solid | Results (crystalline form of precipitate) (Test 415, Anti-Solvent (IPA) Addition (−21° C.), 1,4-dioxane: 1% H20): No Solid | Results (crystalline form of precipitate) (Test 416, Anti-Solvent (Ethanol) Addition Ambient Temperature, 1,4-dioxane: 1% H20): No Solid | Results (crystalline form of precipitate) (Test 417, Anti-Solvent (Ethanol) Addition (4° C.), 1,4-dioxane: 1% H20): No Solid | Results (crystalline form of precipitate) (Test 418, Anti-Solvent (Ethanol) Addition (−21° C.), 1,4-dioxane: 1% H20): No Solid | Results (crystalline form of precipitate) (Test 423, Anti-Solvent (IPA) Addition Elevated Temperature, 1,4-dioxane: 3% H20): No Solid | Results (crystalline form of precipitate) (Test 424, Anti-Solvent (IPA) Addition Ambient Temperature, 1,4-dioxane: 3% H20): No Solid | Results (crystalline form of precipitate) (Test 425, Anti-Solvent (IPA) Addition (4° C.), 1,4-dioxane: 3% H20): No Solid | Results (crystalline form of precipitate) (Test 426, Anti-Solvent (IPA) Addition (−21° C.), 1,4-dioxane: 3% H20): No Solid | Results (crystalline form of precipitate) (Test 427, Anti-Solvent (Ethanol) Addition Ambient Temperature, 1,4-dioxane: 3% H20): No Solid | Results (crystalline form of precipitate) (Test 428, Anti-Solvent (Ethanol) Addition (4° C.), 1,4-dioxane: 3% H20): No Solid | Results (crystalline form of precipitate) (Test 429, Anti-Solvent (Ethanol) Addition (−21° C.), 1,4-dioxane: 3% H20): No Solid | Results (crystalline form of precipitate) (Test 434, Anti-Solvent (IPA) Addition Elevated Temperature, 1,4-dioxane: 10% H20): No Solid | Results (crystalline form of precipitate) (Test 435, Anti-Solvent (IPA) Addition Ambient Temperature, 1,4-dioxane: 10% H20): No Solid
